The structures appear in SMILES notation. The list shows only some results of the screen, not a fair sample: it is rich in T/C values a quarter to a half above the control, in often repeated tests (any T/C) and in doses without a T/C. Other doses and runs of a compound stand elsewhere. T/C gives the treated animals as a percentage of the vehicle group. Some entries give survivors of the animals treated and no T/C: the source holds a T/C of zero for them, seemingly a mark for toxic or unscored doses. Some survivor counts are full or nearly so, which does not show that the dose was tolerated: the source hardly ever lists a survival T/C far under the control, and the zero likely stands for such cases as well. Counts of survivors are from the toxicity check (mostly the fifth day) where no day follows; animals may have died later. Schedules are NCI's codes, read here as Q, the interval in days (D) or hours (H), X, the number of doses. Some entries were tested several times; their values stand side by side, smallest first. Where survival is the endpoint, this PubChem deposit counts one and a half times the control or more as active, and values a quarter to a half above the control carry no call in these data; other NCI protocols may use other cut-offs. Some T/C values carry the count of animals alive at the toxicity check (mostly the fifth day); where none is given, no animal had died by that day.

In the assay the test system is CD2F1 mice, L1210 leukemia ip, survival T/C. Nature of the assay: NCI In Vivo Anticancer Drug Screen. Data for tumor model L1210 Leukemia (intraperitoneal) in CD2F1 (CDF1) mice. The settings on record: higher T/C = longer survival. In short, it runs like this: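 Each value reflects a quotient of treated over vehicle control outcomes in mice with a transplanted tumor.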

Setting [1] is: T/C endpoint: mean survival time, dose: 300.0 mg/kg/injection, schedule: Q01DX001 (ip), vehicle: saline.
Where [2] appears, read: T/C endpoint: mean survival time, dose: 400.0 mg/kg/injection, schedule: Q04DX003 (ip), vehicle: saline with Tween-80.
Setting [3] is: T/C endpoint: mean survival time, dose: 100.0 mg/kg/injection, schedule: Q04DX002 (ip), vehicle: saline with Tween-80.
Setting [4] is: T/C endpoint: mean survival time, dose: 200.0 mg/kg/injection, schedule: Q04DX002 (ip), vehicle: saline with Tween-80.
[5] abbreviates: T/C endpoint: mean survival time, dose: 400.0 mg/kg/injection, schedule: Q04DX002 (ip), vehicle: saline with Tween-80.
Setting [6] is: T/C endpoint: mean survival time, dose: 400.0 mg/kg/injection, schedule: Q01DX009 (ip), vehicle: saline with Tween-80.

With `NNc1ncccn1`, the survivor count reads like this: (T/C endpoint: mean survival time, dose: 75.0 mg/kg/injection, schedule: Q01DX001 (ip), vehicle: saline) 0 of 6; (T/C endpoint: mean survival time, dose: 150.0 mg/kg/injection, schedule: Q01DX001 (ip), vehicle: saline) 0 of 6; under setting [1], 0 of 6.

In the case of `CCCCC(=O)C(=O)OC(OC(=O)C(=O)CCCC)c1ccccc1`, the survivor count under setting [1] was 0 of 6.

`COc1ncnc2c1c(C#N)cn2C1OC(CO)C(O)C1O` (stereo unspecified): where the note is “T/C endpoint: mean survival time, dose: 12.5 mg/kg/injection, schedule: Q01DX009 (ip), vehicle: saline”, the T/C was 128 % of control.

For the compound `CN(C)CCSc1nnc(N)s1`, the survivor count is, setting by setting: (T/C endpoint: mean survival time, dose: 100.0 mg/kg/injection, schedule: Q01DX001 (ip), vehicle: saline) 3 of 3; (T/C endpoint: mean survival time, dose: 400.0 mg/kg/injection, schedule: Q01DX001 (ip), vehicle: saline) 0 of 3.

As to `Brc1cccc(-n2ccnc2)c1`, the survivor count under setting [2] is recorded as 3 of 6.

In the case of `COc1ccc(Br)cc1C1OC(=O)c2c(OC)c(OC)cc([N+](=O)[O-])c21` (stereo unspecified), under setting [2], the survivor count is given as 6 of 6.

Turning to `CS(=O)(=O)OCCCN(CCCOS(C)(=O)=O)CCCN1CCOCC1`, the T/C is 135 % of control (T/C endpoint: mean survival time, dose: 10.0 mg/kg/injection, schedule: Q01DX001 (ip), vehicle: saline); 129 % of control (T/C endpoint: mean survival time, dose: 10.0 mg/kg/injection, schedule: Q01DX005 (ip), vehicle: saline); 142 % of control (T/C endpoint: mean survival time, dose: 10.0 mg/kg/injection, schedule: Q02DX003 (ip), vehicle: saline); 144 % of control (T/C endpoint: mean survival time, dose: 10.0 mg/kg/injection, schedule: Q04DX003 (ip), vehicle: saline); 126 % of control (T/C endpoint: mean survival time, dose: 25.0 mg/kg/injection, schedule: Q01DX001 (ip), vehicle: saline); 135 % of control (T/C endpoint: mean survival time, dose: 25.0 mg/kg/injection, schedule: Q01DX009 (ip), vehicle: saline). Also, the T/C is, setting by setting: (T/C endpoint: mean survival time, dose: 25.0 mg/kg/injection, schedule: Q04DX003 (ip), vehicle: saline) 137 % of control; (T/C endpoint: mean survival time, dose: 40.0 mg/kg/injection, schedule: Q04DX003 (ip), vehicle: saline) 140 % of control; (T/C endpoint: mean survival time, dose: 50.0 mg/kg/injection, schedule: Q01DX001 (ip), vehicle: saline) 144 % of control; (T/C endpoint: mean survival time, dose: 125.0 mg/kg/injection, schedule: Q01DX009 (ip), vehicle: saline) 144 % of control.

Take `CC(C)(C)C1(C#N)C(=O)C2CCCCC21` (stereo unspecified): the survivor count reads like this: under setting [3], 1 of 3; under setting [4], 0 of 3; under setting [5], 0 of 3.

In the case of `OCC1OC(c2[nH]nc3c([Se])ncnc23)C(O)C1O` (stereo unspecified), the survivor count is recorded as 0 of 6 (T/C endpoint: mean survival time, dose: 100.0 mg/kg/injection, schedule: Q01DX005 (ip), vehicle: saline) and 0 of 6 (T/C endpoint: mean survival time, dose: 200.0 mg/kg/injection, schedule: Q01DX005 (ip), vehicle: saline).

With `N=c1c2c(C(N)=O)cn(C3OC(CO)C(O)C3O)c2ncn1O` (stereo unspecified), the survivor count (T/C endpoint: mean survival time, dose: 2.7 mg/kg/injection, schedule: Q01DX009 (ip), vehicle: saline) is 6 of 6; the survivor count (T/C endpoint: mean survival time, dose: 4.0 mg/kg/injection, schedule: Q01DX009 (ip), vehicle: saline) is 6 of 6; the survivor count (T/C endpoint: mean survival time, dose: 6.0 mg/kg/injection, schedule: Q01DX009 (ip), vehicle: saline) was 5 of 6; the survivor count (T/C endpoint: mean survival time, dose: 9.0 mg/kg/injection, schedule: Q01DX009 (ip), vehicle: saline) is 0 of 6 and 4 of 6; the survivor count (T/C endpoint: mean survival time, dose: 13.0 mg/kg/injection, schedule: Q01DX009 (ip), vehicle: saline) is 0 of 6; the survivor count (T/C endpoint: mean survival time, dose: 20.0 mg/kg/injection, schedule: Q01DX009 (ip), vehicle: saline) was 0 of 6. Under “T/C endpoint: mean survival time, dose: 30.0 mg/kg/injection, schedule: Q01DX009 (ip), vehicle: saline”, the survivor count is 0 of 6.

On to `CC1CC(C)(C)NC(CCC2NC(C)(C)CC(C)O2)O1` (stereo unspecified), for which the survivor count is, setting by setting: (T/C endpoint: mean survival time, dose: 200.0 mg/kg/injection, schedule: Q01DX009 (ip), vehicle: saline with Tween-80) 1 of 6; under setting [6], 0 of 6.

With `Cc1cccc(C2=NCCN2)c1C`, the survivor count (T/C endpoint: mean survival time, dose: 100.0 mg/kg/injection, schedule: Q01DX001 (ip), vehicle: saline with Tween-80) was 0 of 6; the survivor count (T/C endpoint: mean survival time, dose: 200.0 mg/kg/injection, schedule: Q01DX001 (ip), vehicle: saline with Tween-80) is 0 of 6; the survivor count (T/C endpoint: mean survival time, dose: 400.0 mg/kg/injection, schedule: Q01DX001 (ip), vehicle: saline with Tween-80) was 0 of 6.

Take `CN(C)N=Nc1cccc([N+](=O)[O-])c1`: the survivor count by setting is: (T/C endpoint: mean survival time, dose: 177.0 mg/kg/injection, schedule: Q01DX009 (ip), vehicle: Klucel (hydroxypropylcellulose) (HPC)) 3 of 6; (T/C endpoint: mean survival time, dose: 266.0 mg/kg/injection, schedule: Q01DX009 (ip), vehicle: Klucel (hydroxypropylcellulose) (HPC)) 0 of 6; (T/C endpoint: mean survival time, dose: 400.0 mg/kg/injection, schedule: Q01DX009 (ip), vehicle: Klucel (hydroxypropylcellulose) (HPC)) 0 of 6.

As to `O=C1C=CC(=O)N1c1ccccc1N1C(=O)C=CC1=O`, the survivor count (T/C endpoint: mean survival time, dose: 5.0 mg/kg/injection, schedule: Q01DX009 (ip), vehicle: Klucel (hydroxypropylcellulose) (HPC)) is listed as 0 of 3.

Regarding `Nc1ncnc2c1ncn2C(C=O)OC(C=O)CO` (stereo unspecified), the T/C (T/C endpoint: mean survival time, dose: 70.0 mg/kg/injection, schedule: Q01DX001 (ip), vehicle: saline) is 141 % of control. Further, the survivor count (T/C endpoint: mean survival time, dose: 140.0 mg/kg/injection, schedule: Q01DX001 (ip), vehicle: saline) was 4 of 7 and the survivor count (T/C endpoint: mean survival time, dose: 280.0 mg/kg/injection, schedule: Q01DX001 (ip), vehicle: saline) is recorded as 0 of 7.

In the case of `CC(=O)NNC(=O)c1ccc(Br)cc1`, the survivor count under setting [6] is reported as 3 of 6.

In the case of `O=C(Nc1nncs1)c1ccncc1`, the T/C is 126 % of control (T/C endpoint: mean survival time, dose: 50.0 mg/kg/injection, schedule: Q01DX009 (ip), vehicle: saline with Tween-80); 125 [5 of 6 alive] and 126 % of control (T/C endpoint: mean survival time, dose: 100.0 mg/kg/injection, schedule: Q01DX009 (ip), vehicle: saline with Tween-80). In addition, the survivor count under setting [6] was 3 of 6.

As to `COc1ccc(Cc2nc(C)cc3cc(OC)c(OC)cc23)cc1OC`, the survivor count runs as follows: (T/C endpoint: mean survival time, dose: 50.0 mg/kg/injection, schedule: Q01DX009 (ip), vehicle: water) 6 of 6; (T/C endpoint: mean survival time, dose: 100.0 mg/kg/injection, schedule: Q01DX009 (ip), vehicle: water) 6 of 6; (T/C endpoint: mean survival time, dose: 200.0 mg/kg/injection, schedule: Q01DX009 (ip), vehicle: water) 5 of 6.

As to `O=C(Nc1ccc(OCC2=NCCN2)cc1)c1ccc(C(=O)Nc2ccc(OCC3=NCCN3)cc2)cc1`, the survivor count by setting is: (T/C endpoint: median survival time, dose: 100.0 mg/kg/injection, schedule: Q01DX009 (ip), vehicle: saline with Tween-80) 2 of 6; (T/C endpoint: median survival time, dose: 200.0 mg/kg/injection, schedule: Q01DX009 (ip), vehicle: saline with Tween-80) 0 of 6; (T/C endpoint: median survival time, dose: 400.0 mg/kg/injection, schedule: Q01DX009 (ip), vehicle: saline with Tween-80) 0 of 6.

As to `Cn1cnc([N+](=O)[O-])c1Sc1ncn[nH]1`, the survivor count is 3 of 6 (T/C endpoint: mean survival time, dose: 200.0 mg/kg/injection, schedule: Q01DX009 (ip), vehicle: suspension in saline) and 2 of 6 (T/C endpoint: mean survival time, dose: 400.0 mg/kg/injection, schedule: Q01DX009 (ip), vehicle: suspension in saline).

Regarding `Nc1ccccc1Nc1ccccc1`, the survivor count (T/C endpoint: mean survival time, dose: 400.0 mg/kg/injection, schedule: Q01DX001 (ip), vehicle: saline + alcohol) is listed as 3 of 6.

With `CN(C)NCc1ccccc1`, the survivor count runs as follows: (T/C endpoint: mean survival time, dose: 200.0 mg/kg/injection, schedule: Q01DX009 (ip), vehicle: saline) 3 of 3; (T/C endpoint: mean survival time, dose: 400.0 mg/kg/injection, schedule: Q01DX009 (ip), vehicle: saline) 0 of 3.

Take `CCOP(=O)(OCC)Oc1c(Cl)c(Cl)c(OC(=O)Nc2cc(Cl)ccc2Cl)c(Cl)c1Cl`: the survivor count reads like this: under setting [3], 3 of 3; under setting [4], 3 of 3; under setting [5], 3 of 3.
